Laboratory results: US20200172486A1, “PYRIDONE COMPOUNDS AND AGRICULTURAL AND HORTICULTURAL FUNGICIDES CONTAINING THE SAME AS ACTIVE INGREDIENTS” (MITSUI CHEMICALS AGRO, INC., priority 2017, published 2020)
Some entries share one result that the patent states for a list of compounds. For at least one compound, name, drawing or mass did not settle the structure.

What was measured:
[1] = system: gray mold fungi (Botrytis cinerea); test: Test Example B: tomato gray mold, spray test on potted tomato plants; details: tomato (Oogata Fukuju), 250 ppm spray 2.5 ml/pot before inoculation, 2 to 3 days after inoculation
[2] = system: cucumber anthracnose fungi (Colletotrichum orbiculare); test: Test Example H: cucumber anthracnose, spray test on potted cucumber plants; details: cucumber (Sagami Hanjiro), 250 ppm spray 2.5 ml/pot before inoculation, 6 to 10 days after inoculation
[3] = system: cabbage alternaria sooty spot fungi (Alternaia brassicicola); test: Test Example C: cabbage alternaria sooty spot, spray test on potted cabbage plants; details: cabbage (Shikidori), 250 ppm spray 2.5 ml/pot before inoculation, 2 to 3 days after inoculation

Measured: control value

CC(C)N(C)c1cc(Br)c(=O)n(CC(F)F)c1-c1c(F)cc(F)cc1F [Compound 156]
> 50%: [1] | [2] | [3]

CCN(C)c1cc(Cl)c(=O)n(CC)c1-c1ccccc1Cl [compound 341]
> 50%: [1] | [2] | [3]

CCN(C)c1cc(Br)c(=O)n(CC)c1-c1c(F)cc(F)cc1F [Compound 65]
> 50%: [1] | [2] | [3]

CCn1c(-c2ccc(F)cc2Cl)c(N(CC(F)(F)F)C(=O)OC)cc(Cl)c1=O [compound 408]
> 50%: [1] | [2] | [3]

CCN(CC(F)F)c1cc(Cl)c(=O)n(CC)c1-c1ccc(F)cc1Cl [Compound 233]
> 50%: [1] | [2] | [3]

CCn1c(-c2ccc(F)cc2F)c(N2CCCC2)cc(Cl)c1=O [compound 335]
> 50%: [1] | [2] | [3]

CCN(C)c1cc(Cl)c(=O)n(CC)c1-c1ccccc1F [compound 419]
> 50%: [1] | [2] | [3]

CCN(C)c1cc(Br)c(=O)n(CC)c1-c1ccccc1F [compound 421]
> 50%: [1] | [2] | [3]

CCn1c(-c2c(F)cc(F)cc2F)c(N(C)C(C)=O)cc(Cl)c1=O [Compound 235]
> 50%: [1] | [2] | [3]

CCn1c(-c2ccc(F)cc2F)c(N(C)CC(F)F)cc(Br)c1=O [compound 362]
> 50%: [1] | [2] | [3]

CCN(CC)c1cc(Br)c(=O)n(CC)c1-c1ccc(F)cc1F [Compound 267]
> 50%: [1] | [2] | [3]

C#CCOc1cc(F)c(-c2c(N(C)C(C)C)cc(Cl)c(=O)n2CC)c(F)c1 [Compound 242]
> 50%: [1] | [2] | [3]

C#CCN(C)c1cc(Br)c(=O)n(CC)c1-c1ccc(F)cc1F [Compound 271]
> 50%: [1] | [2] | [3]

C#CCN(CC)c1cc(Cl)c(=O)n(CC)c1-c1ccc(OC)cc1Cl [Compound 227]
> 50%: [1] | [2] | [3]

CCn1c(-c2ccccc2Br)c(N(C)C(C)C)cc(Br)c1=O [compound 399]
> 50%: [1] | [2] | [3]

CCn1c(-c2ccc(F)cc2Cl)c(N(C)C(C)C)cc(Br)c1=O [Compound 214]
> 50%: [1] | [2] | [3]

CCn1c(-c2c(F)cc(F)cc2F)c(N(C)C(C)C)cc(Cl)c1=O [Compound 124]
> 50%: [1] | [2] | [3]

C#CCN(C)c1cc(Br)c(=O)n(CC)c1-c1c(F)cc(OC)cc1F [Compound 261]
> 50%: [1] | [2] | [3]

CCN(C)c1cc(Br)c(=O)n(CC)c1-c1ccc(F)cc1Cl [compound 339]
> 50%: [1] | [2] | [3]

CCn1c(-c2c(F)cccc2Cl)c(NC(C)C)cc(Br)c1=O [compound 332]
> 50%: [1] | [2] | [3]

CCn1c(-c2ccc(OC)cc2Cl)c(N(C)C(C)C)cc(Br)c1=O [Compound 224]
> 50%: [1] | [2] | [3]

CCn1c(-c2ccccc2Br)c(N(C)CC(F)F)cc(Cl)c1=O [compound 371]
> 50%: [1] | [2] | [3]

CCN(CC)c1cc(Cl)c(=O)n(CC)c1-c1ccccc1F [compound 383]
> 50%: [1] | [2] | [3]

CCn1c(-c2ccc(F)cc2F)c(N2CCCCC2)cc(Br)c1=O [compound 338]
> 50%: [1] | [2] | [3]

CCn1c(-c2c(F)cc(F)cc2F)c(N(C)C(=O)OC)cc(Cl)c1=O [Compound 240]
> 50%: [1] | [2] | [3]

CCN(c1cc(Cl)c(=O)n(CC(F)F)c1-c1c(F)cc(F)cc1F)C(C)C [Compound 154]
> 50%: [1] | [2] | [3]

CCN(CC)c1cc(Cl)c(=O)n(CC(F)F)c1-c1c(F)cc(F)cc1F [Compound 152]
> 50%: [1] | [2] | [3]

C#CCOc1cc(F)c(-c2c(N(C)C(C)C)cc(Br)c(=O)n2CC)c(F)c1 [Compound 243]
> 50%: [1] | [2] | [3]

C#CCN(CC)c1cc(Cl)c(=O)n(CC)c1-c1ccc(F)cc1Br [compound 300]
> 50%: [1] | [2] | [3]

C#CCN(C)c1cc(Cl)c(=O)n(CC)c1-c1ccc(OC)cc1Cl [Compound 225]
> 50%: [1] | [2] | [3]

CCn1c(-c2ccc(F)cc2Cl)c(N(C)CC2CC2)cc(Cl)c1=O [compound 411]
> 50%: [1] | [2] | [3]

CCCN(C)c1cc(Br)c(=O)n(CC)c1-c1ccc(F)cc1Cl [compound 415]
> 50%: [1] | [2] | [3]

CCN(C)c1cc(Br)c(=O)n(CC)c1-c1ccccc1Br [compound 398]
> 50%: [1] | [2] | [3]

C#CCN(CC)c1cc(Br)c(=O)n(CC)c1-c1ccccc1F [compound 420]
> 50%: [1] | [2] | [3]

CCn1c(-c2ccc(F)cc2Br)c(N2CCCCC2)cc(Br)c1=O [compound 316]
> 50%: [1] | [2] | [3]

CCn1c(-c2ccccc2Cl)c(N(C)CC(F)F)cc(Br)c1=O [compound 404]
> 50%: [1] | [2] | [3]

CCN(c1cc(Cl)c(=O)n(CC)c1-c1c(F)cc(F)cc1F)C(C)C [Compound 133]
> 50%: [1] | [2] | [3]

CCN(C)c1cc(Br)c(=O)n(CC)c1-c1ccc(OC)cc1Cl [compound 349]
> 50%: [1] | [2] | [3]

C#CCN(C)c1cc(Br)c(=O)n(CC)c1-c1ccc(OC)cc1Cl [Compound 226]
> 50%: [1] | [2] | [3]

CCn1c(-c2ccc(F)cc2Cl)c(N2CCCC2)cc(Br)c1=O [Compound 272]
> 50%: [1] | [2] | [3]

CCN(C)c1cc(Cl)c(=O)n(CC)c1-c1ccc(F)cc1C [compound 394]
> 50%: [1] | [2] | [3]

CCN(CC)c1cc(Cl)c(=O)n(CC)c1-c1c(F)cccc1F [Compound 10]
> 50%: [1] | [2] | [3]

CCN(C)c1cc(Br)c(=O)n(CC)c1-c1ccccc1Cl [compound 342]
> 50%: [1] | [2] | [3]

CCN(CC)c1cc(Cl)c(=O)n(CC)c1-c1ccc(F)cc1Cl [Compound 37]
> 50%: [1] | [2] | [3]

CCn1c(-c2ccc(F)cc2Br)c(Nc2ccccc2)cc(Cl)c1=O [compound 305]
> 50%: [1] | [2] | [3]

CCN(c1cc(Br)c(=O)n(CC)c1-c1c(F)cc(F)cc1F)C(C)C [Compound 131]
> 50%: [1] | [2] | [3]

CCN(CC)c1cc(Br)c(=O)n(CC)c1-c1ccc(F)cc1C [compound 358]
> 50%: [1] | [2] | [3]

CCn1c(-c2c(F)cc(F)cc2F)c(N(C)C2CCCC2)cc(Br)c1=O [Compound 121]
> 50%: [1] | [2] | [3]

CCN(C)c1cc(Cl)c(=O)n(CC)c1-c1ccc(F)cc1Cl [Compound 36]
> 50%: [1] | [2] | [3]

CCN(CC)c1cc(Br)c(=O)n(CC(F)F)c1-c1c(F)cc(F)cc1F [Compound 229]
> 50%: [1] | [2] | [3]

CCn1c(-c2c(F)cc(F)cc2F)c(N2CCCCC2)cc(Br)c1=O [Compound 104]
> 50%: [1] | [2] | [3]

CCn1c(-c2ccc(F)cc2F)c(N(C)c2ccccc2)cc(Cl)c1=O [Compound 296]
> 50%: [1] | [2] | [3]

CCn1c(-c2ccc(F)cc2Br)c(N2CCCC2)cc(Br)c1=O [compound 314]
> 50%: [1] | [2] | [3]
